Taken from: PubChem BioAssay AID1259254 (NCATS, 2017)

Purpose: 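Genome-wide screen for genes that prevent DNA re-replication in cancer cells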 (primary screen)
System: human HCT116 colorectal cancer cells
Reagents: single siRNA against human genes
Timing: 3 days
Measured: 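Nuclei stained with Hoechst and imaged; cell-cycle phase assigned by DNA content; G2 share scaled per plate, non-targeting siRNA 0%, GMNN siRNA 100%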
Scale: G2 robust z-score and G2 cells, % of GMNN control: higher = more G2 cells, more excess DNA replication
Rule for the call: 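Active siRNAs have a G2 robust z of 5 or more median absolute deviations over the median, which in these data means about 38% or higher of GMNN control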
The deposit covers about 59,000 reagents; shown is a random part of them. Over the whole deposit, about 1,550 (2.6%) got an active call. 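G2 share is only a proxy for re-replication; each gene was hit by three separate siRNAs, and active genes were retested.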 Unmarked entries are inactive. Further read-outs or replicates are left out here. Not given: the amount of reagent.

no.	gene knocked down	PubChem SID	G2 robust z-score	G2 cells, % of GMNN control
1	CEL (GeneID 1056)	SID160741741	1.24	11.7
2	CEL (GeneID 1056)	SID160741752	-0.984	-3.95
3	CEL (GeneID 1056)	SID160741763	3.24	25.8
4	PPP1R10 (GeneID 5514)	SID160745725	-0.514	-0.65
5	PPP1R10 (GeneID 5514)	SID160745830	-0.785	-2.55
6	PPP1R10 (GeneID 5514)	SID160745938	-0.786	-2.56
7	PLCXD1 (GeneID 55344)	SID160743595	3.42	27
8	PLCXD1 (GeneID 55344)	SID160743596	1.2	11.4
9	PLCXD1 (GeneID 55344)	SID160743597	-0.583	-1.13
10	EPM2AIP1 (GeneID 9852)	SID160723254	2.18	18.3
11	EPM2AIP1 (GeneID 9852)	SID160723255	0.421	5.93
12	EPM2AIP1 (GeneID 9852)	SID160723256	8.52 (active)	62.9

Copied from the list.
PPP1R10 (GeneID 5514) [SID160745725], G2 robust z-score: -0.514
Result for CEL (GeneID 1056) [SID160741752] in “G2 cells, % of GMNN control”: -3.95
For “G2 robust z-score”, PPP1R10 (GeneID 5514) [SID160745830] shows -0.785

The listing continues.
no.	gene knocked down	PubChem SID	G2 robust z-score	G2 cells, % of GMNN control
13	CFAP157 (GeneID 286207)	SID160763811	0.579	7.04
14	CFAP157 (GeneID 286207)	SID160763812	0.444	6.09
15	CFAP157 (GeneID 286207)	SID160763813	-0.599	-1.25
16	METTL16 (GeneID 79066)	SID160748567	1.69	14.8
17	METTL16 (GeneID 79066)	SID160748568	-1.08	-4.63
18	METTL16 (GeneID 79066)	SID160748569	0.587	7.1
19	PCSK4 (GeneID 54760)	SID160731464	2.55	20.9
20	PCSK4 (GeneID 54760)	SID160742117	-0.0801	2.4
21	PCSK4 (GeneID 54760)	SID160742118	-0.592	-1.2
22	RAPGEFL1 (GeneID 51195)	SID160740294	1.16	11.1
23	RAPGEFL1 (GeneID 51195)	SID160740295	-1.19	-5.4
24	RAPGEFL1 (GeneID 51195)	SID160740296	0.0622	3.41
25	ATP2A2 (GeneID 488)	SID160721568	-0.148	1.93
26	ATP2A2 (GeneID 488)	SID160721579	1.73	15.1
27	ATP2A2 (GeneID 488)	SID160721590	-0.463	-0.29
28	FAF2 (GeneID 23197)	SID160735690	2.38	19.7
29	FAF2 (GeneID 23197)	SID160735692	0.407	5.83
30	FAF2 (GeneID 23197)	SID160735693	1.16	11.1
